Among the data in paper PMC8458377 (Nature Communications, 2021) are binding values, retold here.

Results are given in words; binding and its absence hold for the method and conditions named. In cells and extracts the contact can be indirect. Some binding calls cover weakened binding; strength is not graded here.

The labels stand for the following.
B1: p18m_AUG1, Ty1 Gag residues M249-N355 (crystallised) (domain or fragment, S. cerevisiae, UniProt P08405 249-355, looked up)
chain: MKILSKSIEKMQSDTQEANDIVTLANLQYNGSTPADAFETKVTNIIDRLNNNGIHINNKVACQLIMRGLSGEYKFLRYTRHRHLNMTVAELFLDIHAIYEEQQGSRN
notes: S. cerevisiae Ty1A (Ty1 Gag), Uniprot P08405, residues M249-N355, starting at the AUG1 methionine; Residues D262 to Q351 are visible in the map; source: E. coli BL21 (DE3), purified (Ni-NTA, carboxypeptidase A digestion, gel filtration)
B2: p18m_AUG1-A273V (expressed in yeast) (domain or fragment, UniProt P08405 249-355)
chain: MKILSKSIEKMQSDTQEANDIVTLVNLQYNGSTPADAFETKVTNIIDRLNNNGIHINNKVACQLIMRGLSGEYKFLRYTRHRHLNMTVAELFLDIHAIYEEQQGSRN
B3: p18m_AUG1-I269F (expressed in yeast) (domain or fragment, UniProt P08405 249-355)
chain: MKILSKSIEKMQSDTQEANDFVTLANLQYNGSTPADAFETKVTNIIDRLNNNGIHINNKVACQLIMRGLSGEYKFLRYTRHRHLNMTVAELFLDIHAIYEEQQGSRN

The target in this assay is T1, Ty1 Gag (in virus-like particles) (S. cerevisiae) (UniProt P08405).
T1 sequence: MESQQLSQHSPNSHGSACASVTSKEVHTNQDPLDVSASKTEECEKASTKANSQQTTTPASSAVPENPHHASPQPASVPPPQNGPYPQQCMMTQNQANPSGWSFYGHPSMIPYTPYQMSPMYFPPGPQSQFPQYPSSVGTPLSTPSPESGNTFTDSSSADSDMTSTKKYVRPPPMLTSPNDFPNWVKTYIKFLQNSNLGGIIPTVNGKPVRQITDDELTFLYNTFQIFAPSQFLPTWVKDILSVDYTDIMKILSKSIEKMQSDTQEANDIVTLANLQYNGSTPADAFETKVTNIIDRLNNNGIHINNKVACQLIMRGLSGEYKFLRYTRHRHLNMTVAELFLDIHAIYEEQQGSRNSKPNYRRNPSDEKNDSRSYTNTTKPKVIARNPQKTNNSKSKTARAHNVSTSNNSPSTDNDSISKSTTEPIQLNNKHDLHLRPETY
Kind of assay: co-sedimentation; protein extracts of galactose-induced yeast co-expressing Ty1 and the restriction factor, 7-47% continuous sucrose gradient, 25,000 rpm 3 h 4 °C, fractions immunoblotted (anti-TY for Gag, anti-hexa-histidine for p18 constructs). On the technique in general: Immunoblotting shows a protein as a band on a membrane.
With B1, the binding result is reported as “binds”. Consider B2, for which the binding entry is on record as “binds”. In the case of B3 it was “binds”.
